By UniProt entry, the sequences of proteins in these tests, tags left out.
UniProt Q86WJ1: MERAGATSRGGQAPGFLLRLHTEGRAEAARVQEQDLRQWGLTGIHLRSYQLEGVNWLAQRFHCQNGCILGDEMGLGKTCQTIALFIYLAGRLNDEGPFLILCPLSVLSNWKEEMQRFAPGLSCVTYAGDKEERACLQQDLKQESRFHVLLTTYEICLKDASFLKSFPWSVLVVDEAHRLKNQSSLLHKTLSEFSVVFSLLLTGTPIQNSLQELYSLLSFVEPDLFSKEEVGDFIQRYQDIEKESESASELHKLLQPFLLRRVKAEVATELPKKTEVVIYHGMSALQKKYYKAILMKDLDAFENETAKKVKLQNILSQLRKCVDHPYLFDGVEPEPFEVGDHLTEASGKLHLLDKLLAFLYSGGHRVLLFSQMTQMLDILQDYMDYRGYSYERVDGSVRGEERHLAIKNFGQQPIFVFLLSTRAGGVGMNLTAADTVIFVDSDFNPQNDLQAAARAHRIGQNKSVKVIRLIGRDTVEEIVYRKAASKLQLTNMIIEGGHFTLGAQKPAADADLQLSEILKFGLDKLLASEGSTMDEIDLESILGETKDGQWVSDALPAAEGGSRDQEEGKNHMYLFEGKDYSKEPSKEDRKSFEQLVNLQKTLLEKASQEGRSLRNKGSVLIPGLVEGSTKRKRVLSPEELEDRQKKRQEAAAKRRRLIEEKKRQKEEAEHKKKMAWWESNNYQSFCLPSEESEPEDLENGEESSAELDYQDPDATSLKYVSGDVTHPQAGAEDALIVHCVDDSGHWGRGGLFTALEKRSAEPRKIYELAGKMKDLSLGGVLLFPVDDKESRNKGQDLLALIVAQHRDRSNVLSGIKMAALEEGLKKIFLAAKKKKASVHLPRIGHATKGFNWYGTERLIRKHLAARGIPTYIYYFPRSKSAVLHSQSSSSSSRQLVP
UniProt Q9NRC8: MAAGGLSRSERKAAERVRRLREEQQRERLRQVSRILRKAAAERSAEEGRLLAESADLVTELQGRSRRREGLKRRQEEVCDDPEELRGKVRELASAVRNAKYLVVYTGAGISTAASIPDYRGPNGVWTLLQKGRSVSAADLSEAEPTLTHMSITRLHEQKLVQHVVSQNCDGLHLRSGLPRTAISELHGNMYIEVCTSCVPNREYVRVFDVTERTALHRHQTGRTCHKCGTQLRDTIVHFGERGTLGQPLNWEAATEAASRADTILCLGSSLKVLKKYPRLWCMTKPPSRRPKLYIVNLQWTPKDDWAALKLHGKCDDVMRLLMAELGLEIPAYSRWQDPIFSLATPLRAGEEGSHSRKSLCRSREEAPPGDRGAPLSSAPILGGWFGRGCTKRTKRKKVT

According to PMC10493023:

Biological target: Flag-HA-CHD1L (UniProt Q86WJ1)
Experiment: affinity purification with mass spectrometry; tandem affinity purification of the CHD1L-containing complex from 786-O cells stably expressing Flag-HA-CHD1L; peptides analysed by mass spectrometry

Question: With SIRT7 (from UniProt Q9NRC8 1-400) as the substance, how does the binding read?
Answer: The binding was “binds”.

These are yes or no findings as the source states them, for the method shown. In cells and extracts the contact can be indirect. A yes stands for co-enrichment or nearness to the bait. Other partners may have been found.
